{"source": "PubChem BioAssay AID1347138", "about": "(National Center for Advancing Translational Sciences (NCATS), 2019)", "experiment": "qHTS of pediatric cancer cell lines to identify multiple opportunities for drug repurposing: Orthogonal 3D caspase screen for TC32 cells", "text": "Drug repurposing or repositioning has been offered as a strategy for drug development in oncology programs. This approach has special potential for childhood cancers and other rare or orphan diseases, where the expected return on new drug development has been a disincentive to pharmaceuticals. […] In this project we exploit the poly-pharmacology of drugs to discover new indications via phenotypic screening of a panel of 19 well-characterized cell lines derived from solid tumors seen in children and adolescents. The goal is to identify approved drugs with previously unrecognized anticancer properties that has the potential to reveal new mechanisms and biological processes involved in carcinogenesis or drug resistance. We employed a titration-based paradigm (quantitative high-throughput screening or qHTS), where all compounds were tested at multiple concentrations for their effect on cell viability. […] Assay Submitter: Nathalia J. Martinez, National Center for Advancing Translational Sciences, National Institutes of Health, Rockville, MD, USA; email: natalia.martinez@nih.gov Shen, M et al. Quantitative high-throughput phenotypic screening of pediatric cancer cell lines identifies multiple opportunities for drug repurposing. […]", "note": "Inconclusive results, whose numbers are uncertain, are shown with a selection of clear calls. Entries that show only a call come without a potency. Potencies of inconclusive entries are doubtful fits and often do not repeat. Active and inactive are the calls of the source. The call rests on the fitted dose curve; in most records, active means well fitted inhibition curve with a large enough effect; inconclusive means small, poorly fitted or top-dose-only effect; inactive means no such curve, though single readings can be large or run the other way."}
{"smiles": "COC(=O)C1=CCCN(C)C1", "values": [{"measurement": "Potency", "value": "inconclusive: 5.74 µM [inhibitor, partial curve, poor fit]"}]}
{"smiles": "C[C@@H]1C[C@@H]([C@H](O)CC2CC(=O)NC(=O)C2)C(=O)[C@@H](C)C1", "values": [{"measurement": "Potency", "value": "inactive"}]}
